Data reported in article PMC10714334 (The Journal of Biological Chemistry, 2023).
Where a sequence shows no end group, the ends are not given.

Assay: general procedure: Fmoc solid-phase peptide synthesis
Settings: whole synthesis
With AIRQTHAIFFNFFKRR the “final HPLC purity” value was ≥99%. In the case of AIRQTHNIFFNFFKRR, the “final HPLC purity” value is reported as ≥99%. In the case of EARQTHNIFFNFFKRR, the “final HPLC purity” value is reported as ≥99%. For EIAQTHNIFFNFFKRR, the “final HPLC purity” value was ≥99%. With EIRATHNIFFNFFKRR the “final HPLC purity” value was ≥99%. With EIRQAHNIFFNFFKRR the “final HPLC purity” value was ≥99%. With EIRQTANIFFNFFKRR the “final HPLC purity” value was ≥99%. For EIRQTHAIFFNFFKRR, the “final HPLC purity” value was ≥99%. With EIRQTHNAFFNFFKRR the “final HPLC purity” value was ≥98%. For EIRQTHNIAFNFFKRR, the “final HPLC purity” value was ≥99%. For EIRQTHNIFANFFKRR, the “final HPLC purity” value was ≥99%. In the case of EIRQTHNIFFAFFKRR, the “final HPLC purity” value is reported as ≥99%. For EIRQTHNIFFNAFKRR, the “final HPLC purity” value was ≥99%. For EIRQTHNIFFNFAKRR, the “final HPLC purity” value was ≥99%. For EIRQTHNIFFNFF, the “final HPLC purity” value was ≥99%. For EIRQTHNIFFNFFARR, the “final HPLC purity” value was ≥98%. With EIRQTHNIFFNFFK the “final HPLC purity” value was ≥99%. For EIRQTHNIFFNFFKAR, the “final HPLC purity” value was ≥99%. In the case of EIRQTHNIFFNFFKR, the “final HPLC purity” value is reported as ≥99%. In the case of EIRQTHNIFFNFFKRA, the “final HPLC purity” value is reported as ≥99%. In the case of EIRQTHNIFFNFFKRR, the “final HPLC purity” value is reported as ≥99%. For EIRQTHNIFFNFFKRr, the “final HPLC purity” value was ≥99%. With EIRQTHNIFFNFFKrR the “final HPLC purity” value was ≥99%. With EIRQTHNIFFNFFkRR the “final HPLC purity” value was ≥99%. In the case of EIRQTHNIFFNFfKRR, the “final HPLC purity” value is reported as ≥99%. For EIRQTHNIFFNfFKRR, the “final HPLC purity” value was ≥99%. For EIRQTHNIFFnFFKRR, the “final HPLC purity” value was ≥98%. For EIRQTHNIFfNFFKRR, the “final HPLC purity” value was ≥99%. In the case of EIRQTHNIfFNFFKRR, the “final HPLC purity” value is reported as ≥99%. With EIRQTHNiFFNFFKRR the “final HPLC purity” value was ≥96%. With EIRQTHnIFFNFFKRR the “final HPLC purity” value was ≥98%. In the case of EIRQThNIFFNFFKRR, the “final HPLC purity” value is reported as ≥99%. With EIRQtHNIFFNFFKRR the “final HPLC purity” value was ≥99%. In the case of EIRqTHNIFFNFFKRR, the “final HPLC purity” value is reported as ≥99%. In the case of EIrQTHNIFFNFFKRR, the “final HPLC purity” value is reported as ≥99%. With EiRQTHNIFFNFFKRR the “final HPLC purity” value was ≥99%. With IRQTHNIFFNFFKRR the “final HPLC purity” value was ≥99%. For QTHNIFFNFFKRR, the “final HPLC purity” value was ≥95%. With RQTHNIFFNFFKRR the “final HPLC purity” value was ≥99%. For eIRQTHNIFFNFFKRR, the “final HPLC purity” value was ≥99%.
